# Data taken from the supplement of paper PMC10849652.
# Chains of the proteins cited; added tags and fusions are not shown. Lines headed by an entry give the natural chain unless they say otherwise; changes in a name come on top.
# UniProt P16989, whole entry, looked up: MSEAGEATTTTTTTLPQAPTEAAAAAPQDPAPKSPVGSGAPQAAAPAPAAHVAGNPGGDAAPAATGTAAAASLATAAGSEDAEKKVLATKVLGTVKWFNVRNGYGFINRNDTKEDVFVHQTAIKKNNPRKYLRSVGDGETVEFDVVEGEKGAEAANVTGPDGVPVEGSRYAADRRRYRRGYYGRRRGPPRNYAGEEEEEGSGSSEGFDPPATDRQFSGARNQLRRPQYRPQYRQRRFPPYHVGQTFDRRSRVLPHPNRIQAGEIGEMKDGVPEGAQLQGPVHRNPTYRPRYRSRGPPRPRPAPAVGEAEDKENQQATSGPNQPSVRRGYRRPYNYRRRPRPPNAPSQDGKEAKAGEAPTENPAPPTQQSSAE
# UniProt Q5T200: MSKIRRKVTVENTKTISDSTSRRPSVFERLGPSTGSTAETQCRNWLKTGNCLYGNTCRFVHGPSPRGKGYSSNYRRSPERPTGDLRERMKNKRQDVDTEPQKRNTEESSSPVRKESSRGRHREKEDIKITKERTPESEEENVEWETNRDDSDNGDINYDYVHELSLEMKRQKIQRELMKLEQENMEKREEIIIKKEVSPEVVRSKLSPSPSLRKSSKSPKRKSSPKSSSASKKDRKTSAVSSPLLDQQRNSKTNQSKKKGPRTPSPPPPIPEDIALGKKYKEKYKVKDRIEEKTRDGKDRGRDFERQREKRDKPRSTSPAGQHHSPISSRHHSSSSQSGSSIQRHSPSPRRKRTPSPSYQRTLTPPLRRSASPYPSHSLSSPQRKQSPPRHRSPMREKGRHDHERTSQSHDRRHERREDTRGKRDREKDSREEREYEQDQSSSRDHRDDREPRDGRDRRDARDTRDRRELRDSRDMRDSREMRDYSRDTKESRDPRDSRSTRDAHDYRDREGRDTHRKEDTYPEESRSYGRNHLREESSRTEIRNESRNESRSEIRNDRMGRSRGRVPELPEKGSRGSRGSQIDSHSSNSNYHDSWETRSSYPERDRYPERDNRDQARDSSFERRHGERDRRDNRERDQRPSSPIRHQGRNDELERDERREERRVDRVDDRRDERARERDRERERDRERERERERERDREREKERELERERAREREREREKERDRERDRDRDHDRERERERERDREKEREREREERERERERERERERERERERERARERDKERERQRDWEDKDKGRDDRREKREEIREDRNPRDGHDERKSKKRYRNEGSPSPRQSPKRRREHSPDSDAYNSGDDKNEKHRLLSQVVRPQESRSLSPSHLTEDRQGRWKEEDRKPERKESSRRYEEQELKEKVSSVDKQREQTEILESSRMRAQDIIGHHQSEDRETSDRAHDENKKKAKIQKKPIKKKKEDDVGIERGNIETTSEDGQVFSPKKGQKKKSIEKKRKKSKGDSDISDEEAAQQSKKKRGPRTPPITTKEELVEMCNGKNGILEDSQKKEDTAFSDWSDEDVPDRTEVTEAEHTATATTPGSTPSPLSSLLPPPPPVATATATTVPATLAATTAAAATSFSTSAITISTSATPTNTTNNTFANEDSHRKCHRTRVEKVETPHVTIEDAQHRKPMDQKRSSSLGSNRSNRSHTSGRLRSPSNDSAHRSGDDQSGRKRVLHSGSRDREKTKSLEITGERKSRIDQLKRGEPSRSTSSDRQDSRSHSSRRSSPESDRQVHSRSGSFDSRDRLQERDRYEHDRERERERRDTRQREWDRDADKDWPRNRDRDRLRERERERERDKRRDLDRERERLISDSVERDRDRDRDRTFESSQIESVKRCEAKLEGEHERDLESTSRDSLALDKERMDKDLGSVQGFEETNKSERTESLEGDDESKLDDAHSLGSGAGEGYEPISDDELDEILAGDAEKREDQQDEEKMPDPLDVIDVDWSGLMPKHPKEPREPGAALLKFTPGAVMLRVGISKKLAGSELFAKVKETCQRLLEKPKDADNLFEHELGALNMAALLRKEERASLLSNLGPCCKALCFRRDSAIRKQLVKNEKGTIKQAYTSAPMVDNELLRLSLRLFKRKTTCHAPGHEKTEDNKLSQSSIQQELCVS
# UniProt Q8IX07: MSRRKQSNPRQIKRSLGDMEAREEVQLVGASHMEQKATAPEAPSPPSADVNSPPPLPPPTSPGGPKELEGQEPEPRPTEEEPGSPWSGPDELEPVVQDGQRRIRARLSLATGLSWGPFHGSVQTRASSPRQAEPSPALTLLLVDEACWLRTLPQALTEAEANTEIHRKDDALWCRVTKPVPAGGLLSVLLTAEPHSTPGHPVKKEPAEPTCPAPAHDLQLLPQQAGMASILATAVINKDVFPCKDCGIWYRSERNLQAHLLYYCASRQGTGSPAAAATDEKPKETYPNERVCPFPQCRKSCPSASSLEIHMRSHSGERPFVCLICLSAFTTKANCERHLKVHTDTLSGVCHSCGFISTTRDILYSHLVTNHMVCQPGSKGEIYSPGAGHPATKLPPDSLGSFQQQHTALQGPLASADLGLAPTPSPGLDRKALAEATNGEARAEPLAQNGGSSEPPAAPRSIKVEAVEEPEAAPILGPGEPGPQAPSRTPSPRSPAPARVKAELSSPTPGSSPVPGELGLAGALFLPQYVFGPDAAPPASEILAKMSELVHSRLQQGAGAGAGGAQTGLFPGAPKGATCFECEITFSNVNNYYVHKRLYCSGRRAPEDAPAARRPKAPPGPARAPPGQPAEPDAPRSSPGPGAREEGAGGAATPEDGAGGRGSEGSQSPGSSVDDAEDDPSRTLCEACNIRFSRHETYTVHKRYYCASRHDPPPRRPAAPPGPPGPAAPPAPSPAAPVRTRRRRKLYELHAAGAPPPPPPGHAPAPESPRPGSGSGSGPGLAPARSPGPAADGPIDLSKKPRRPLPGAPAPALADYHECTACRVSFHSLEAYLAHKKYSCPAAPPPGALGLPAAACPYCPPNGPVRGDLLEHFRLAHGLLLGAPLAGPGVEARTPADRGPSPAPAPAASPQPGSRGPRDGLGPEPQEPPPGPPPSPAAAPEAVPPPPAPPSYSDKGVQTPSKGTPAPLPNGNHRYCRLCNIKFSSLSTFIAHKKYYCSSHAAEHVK
# UniProt Q8IWT0: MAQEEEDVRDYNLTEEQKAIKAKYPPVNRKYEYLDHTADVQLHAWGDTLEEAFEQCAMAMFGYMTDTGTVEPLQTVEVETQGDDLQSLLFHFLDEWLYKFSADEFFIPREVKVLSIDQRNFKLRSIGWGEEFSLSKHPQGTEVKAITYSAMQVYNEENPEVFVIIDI
# UniProt Q6FIF0: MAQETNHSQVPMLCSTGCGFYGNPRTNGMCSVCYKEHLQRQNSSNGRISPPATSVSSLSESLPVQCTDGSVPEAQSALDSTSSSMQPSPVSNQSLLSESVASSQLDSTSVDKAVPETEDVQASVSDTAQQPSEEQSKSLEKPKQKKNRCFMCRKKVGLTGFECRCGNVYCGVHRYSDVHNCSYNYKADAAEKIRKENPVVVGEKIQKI
# UniProt Q86T24: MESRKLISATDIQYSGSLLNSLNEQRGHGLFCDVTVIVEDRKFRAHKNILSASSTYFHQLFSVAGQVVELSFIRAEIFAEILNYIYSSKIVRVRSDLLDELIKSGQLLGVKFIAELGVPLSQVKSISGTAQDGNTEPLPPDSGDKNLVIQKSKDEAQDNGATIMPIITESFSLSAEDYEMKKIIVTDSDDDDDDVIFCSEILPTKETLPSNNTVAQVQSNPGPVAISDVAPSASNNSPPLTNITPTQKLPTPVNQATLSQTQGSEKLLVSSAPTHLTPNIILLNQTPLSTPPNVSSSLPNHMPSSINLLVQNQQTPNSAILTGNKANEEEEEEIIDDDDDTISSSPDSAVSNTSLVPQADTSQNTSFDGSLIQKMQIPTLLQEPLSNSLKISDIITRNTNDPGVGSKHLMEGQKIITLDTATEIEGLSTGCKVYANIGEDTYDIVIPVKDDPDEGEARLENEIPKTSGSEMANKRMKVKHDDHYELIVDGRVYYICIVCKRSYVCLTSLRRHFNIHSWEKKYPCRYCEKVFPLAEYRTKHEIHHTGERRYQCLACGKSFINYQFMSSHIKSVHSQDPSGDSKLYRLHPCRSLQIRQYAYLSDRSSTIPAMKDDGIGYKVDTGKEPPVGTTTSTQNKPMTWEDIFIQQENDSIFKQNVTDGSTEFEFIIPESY
# UniProt Q9NUE0: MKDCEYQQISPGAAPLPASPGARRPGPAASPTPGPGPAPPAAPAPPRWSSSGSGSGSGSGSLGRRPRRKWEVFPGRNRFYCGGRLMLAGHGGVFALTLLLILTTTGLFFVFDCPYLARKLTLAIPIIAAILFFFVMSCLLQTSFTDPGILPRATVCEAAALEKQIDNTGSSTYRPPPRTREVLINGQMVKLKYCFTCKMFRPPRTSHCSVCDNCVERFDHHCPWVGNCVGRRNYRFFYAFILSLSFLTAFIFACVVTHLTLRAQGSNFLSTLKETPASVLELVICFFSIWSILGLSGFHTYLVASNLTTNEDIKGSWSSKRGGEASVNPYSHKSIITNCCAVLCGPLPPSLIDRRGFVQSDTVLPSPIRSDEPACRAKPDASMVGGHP
# UniProt Q96KR1: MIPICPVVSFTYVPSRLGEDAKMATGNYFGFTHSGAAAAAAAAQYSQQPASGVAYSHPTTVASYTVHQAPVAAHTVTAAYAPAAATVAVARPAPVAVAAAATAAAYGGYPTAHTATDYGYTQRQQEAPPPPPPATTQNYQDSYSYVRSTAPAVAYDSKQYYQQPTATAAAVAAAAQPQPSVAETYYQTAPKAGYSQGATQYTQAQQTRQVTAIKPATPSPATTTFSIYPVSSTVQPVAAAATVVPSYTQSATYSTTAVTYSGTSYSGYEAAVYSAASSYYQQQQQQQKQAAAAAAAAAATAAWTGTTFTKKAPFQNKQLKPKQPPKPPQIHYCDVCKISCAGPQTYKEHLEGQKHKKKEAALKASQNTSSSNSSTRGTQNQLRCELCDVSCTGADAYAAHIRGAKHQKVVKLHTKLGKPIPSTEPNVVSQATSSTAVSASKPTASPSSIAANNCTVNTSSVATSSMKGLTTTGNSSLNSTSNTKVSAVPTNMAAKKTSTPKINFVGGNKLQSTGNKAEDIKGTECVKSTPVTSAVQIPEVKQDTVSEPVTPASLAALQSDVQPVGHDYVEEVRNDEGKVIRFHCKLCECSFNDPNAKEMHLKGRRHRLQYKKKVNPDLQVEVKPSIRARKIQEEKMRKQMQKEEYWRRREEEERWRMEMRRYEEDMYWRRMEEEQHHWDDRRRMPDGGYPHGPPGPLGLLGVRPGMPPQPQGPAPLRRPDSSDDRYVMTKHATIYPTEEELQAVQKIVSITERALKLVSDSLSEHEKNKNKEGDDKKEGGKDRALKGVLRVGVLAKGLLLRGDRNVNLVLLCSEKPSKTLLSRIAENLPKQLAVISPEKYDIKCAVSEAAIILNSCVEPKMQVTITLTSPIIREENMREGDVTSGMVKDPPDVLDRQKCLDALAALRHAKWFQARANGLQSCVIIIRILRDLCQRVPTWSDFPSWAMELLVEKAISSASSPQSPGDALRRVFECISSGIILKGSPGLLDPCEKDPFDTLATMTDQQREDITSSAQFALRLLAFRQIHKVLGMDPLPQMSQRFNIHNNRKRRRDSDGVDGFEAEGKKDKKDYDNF
# UniProt Q8N5P1: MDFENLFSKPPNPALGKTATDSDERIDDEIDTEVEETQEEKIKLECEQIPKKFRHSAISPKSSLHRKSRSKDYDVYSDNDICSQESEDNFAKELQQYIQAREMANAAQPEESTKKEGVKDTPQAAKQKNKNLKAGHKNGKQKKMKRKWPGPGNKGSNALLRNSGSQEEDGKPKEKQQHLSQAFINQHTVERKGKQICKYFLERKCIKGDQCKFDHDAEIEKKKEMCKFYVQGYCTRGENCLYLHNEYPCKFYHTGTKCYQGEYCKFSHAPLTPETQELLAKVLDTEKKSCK
# UniProt P07947, whole entry, looked up: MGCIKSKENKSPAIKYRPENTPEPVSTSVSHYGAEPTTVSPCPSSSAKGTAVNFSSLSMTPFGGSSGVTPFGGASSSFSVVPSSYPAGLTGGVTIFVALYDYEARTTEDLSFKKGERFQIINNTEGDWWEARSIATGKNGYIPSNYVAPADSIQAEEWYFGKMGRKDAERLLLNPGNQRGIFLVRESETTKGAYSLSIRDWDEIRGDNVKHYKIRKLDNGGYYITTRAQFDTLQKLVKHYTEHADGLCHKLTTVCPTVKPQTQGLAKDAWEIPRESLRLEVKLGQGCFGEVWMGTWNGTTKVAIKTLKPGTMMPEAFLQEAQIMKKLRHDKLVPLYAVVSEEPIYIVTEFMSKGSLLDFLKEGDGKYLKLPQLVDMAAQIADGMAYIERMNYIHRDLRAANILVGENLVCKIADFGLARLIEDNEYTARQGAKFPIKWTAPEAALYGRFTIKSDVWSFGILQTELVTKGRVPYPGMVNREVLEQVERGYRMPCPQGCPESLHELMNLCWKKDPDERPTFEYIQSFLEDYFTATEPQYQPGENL
# The list shows a part of the results.
# What was measured:
# Assay in all cases: log2 fold change, soluble protein after heating vs DMSO (PISA); higher = thermal stabilisation; K562 lysate, 10 uM; active = over 0.2 and 3.5 SD of the protein, either way, in both replicates (recomputed)
# nilotinib = compound: Cc1cn(-c2cc(NC(=O)c3ccc(C)c(Nc4nccc(-c5cccnc5)n4)c3)cc(C(F)(F)F)c2)cn1 [nilotinib]
# How it was run: (§1)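 Following dounce homogenisation of K562 pellets in PBS pH 7.4 with 1 mM MgCl2, crude extract at 1 mg/mL protein was incubated for 30 min with 10 μM compound. Aliquots were then heated for 3 min over 48°C-58°C and pooled, NP-40 was added to 0.5% at 4°C, and soluble protein was recovered as the supernatant at 21,000xg for 90 min. Channel-sum-equalised TMTpro 16plex LC-MS/MS quantified this protein. Each value, from duplicates, is a log-two fold change in thermal stability relative to solvent controls.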
# [1] = compound: Cc1nc(Nc2n[nH]c3c2CN(C(=O)N[C@H](CN(C)C)c2ccccc2)C3(C)C)c2sccc2n1
# How it was run: as §1
# dasatinib = compound: Cc1nc(Nc2ncc(C(=O)Nc3c(C)cccc3Cl)s2)cc(N2CCN(CCO)CC2)n1 [dasatinib]
# How it was run: as §1
# [2] = compound: Cc1ncc(-c2ccnc(Nc3ccc(S(C)(=O)=O)cc3)n2)n1C(C)C
# How it was run: as §1
# [3] = compound: Cn1cc(-c2ccc3c(c2)CCN3C(=O)Cc2cccc(C(F)(F)F)c2)c2c(N)ncnc21
# How it was run: as §1
# quisinostat = compound: Cn1cc(CNCC2CCN(c3ncc(C(=O)NO)cn3)CC2)c2ccccc21 [quisinostat]
# How it was run: as §1
# tipifarnib = compound: Cn1cncc1[C@@](N)(c1ccc(Cl)cc1)c1ccc2c(c1)c(-c1cccc(Cl)c1)cc(=O)n2C [tipifarnib]
# How it was run: as §1
# [4] = compound: NC(=O)Nc1cc(-c2cccc(F)c2)sc1C(=O)N[C@H]1CCCNC1
# How it was run: as §1
# [5] = compound: NC(=O)c1cnc(N[C@@H]2CCCC[C@@H]2N)nc1Nc1cccc(-n2nccn2)c1
# How it was run: as §1
# [6] = compound: NC1(c2ccc(-c3nc4ccn5c(=O)[nH]nc5c4cc3-c3ccccc3)cc2)CCC1
# How it was run: as §1
# [7] = compound: NCC(=O)Nc1ccc(-n2nc(C(F)(F)F)cc2-c2ccc3c(ccc4ccccc43)c2)cc1
# How it was run: as §1
# vorinostat = compound: O=C(CCCCCCC(=O)Nc1ccccc1)NO [vorinostat]
# How it was run: as §1
# silmitasertib = compound: O=C(O)c1ccc2c(c1)nc(Nc1cccc(Cl)c1)c1ccncc12 [silmitasertib]
# How it was run: as §1
# [8] = compound: O=C1NC(=O)C(c2cnc3ccccn23)=C1c1cn2c3c(cc(F)cc13)CN(C(=O)N1CCCCC1)CC2
# How it was run: as §1
# entospletinib = compound: c1cn2cc(-c3ccc4cn[nH]c4c3)nc(Nc3ccc(N4CCOCC4)cc3)c2n1 [entospletinib]
# How it was run: as §1
Target,log2 fold change (nilotinib),log2 fold change [1],log2 fold change (dasatinib),log2 fold change [2],log2 fold change [3],log2 fold change (quisinostat),log2 fold change (tipifarnib),log2 fold change [4],log2 fold change [5],log2 fold change [6],log2 fold change [7],log2 fold change (vorinostat),log2 fold change (silmitasertib),log2 fold change [8],log2 fold change (entospletinib)
YBX3 (UniProt P16989),inactive: -0.013,inactive: -0.009,inactive: 0.008,inactive: -0.02,inactive: -0.036,inactive: -0.023,inactive: -0.014,inactive: -0.008,inactive: -0.023,inactive: -0.004,inactive: 0.007,inactive: 0.147,inactive: -0.015,inactive: 0.032,inactive: 0.001
ZC3H13 (UniProt Q5T200),inactive: -0.033,inactive: 0.137,inactive: -0.035,inactive: 0.144,inactive: -0.044,inactive: -0.067,inactive: -0.184,inactive: 0.002,inactive: 0.028,inactive: -0.049,inactive: 0.174,inactive: -0.052,inactive: -0.008,inactive: -0.104,inactive: 0.001
ZFPM1 (UniProt Q8IX07),inactive: 0.036,inactive: -0.075,inactive: -0.087,inactive: 0.042,inactive: 0.095,inactive: -0.189,inactive: 0.044,inactive: 0.034,inactive: -0.082,inactive: -0.018,inactive: -0.009,active: -0.251,inactive: 0,inactive: -0.03,inactive: -0.021
ZC2HC1A (UniProt Q96GY0),inactive: 0,inactive: 0.005,inactive: -0.085,inactive: 0.002,inactive: 0.1,inactive: -0.082,inactive: -0.02,inactive: -0.014,inactive: 0.04,inactive: -0.092,inactive: 0.104,inactive: -0.066,inactive: 0.054,inactive: -0.008,inactive: -0.005
ZBTB8OS (UniProt Q8IWT0),inactive: -0.035,inactive: 0.011,inactive: -0.013,inactive: -0.018,inactive: 0.029,inactive: 0.123,inactive: 0.003,inactive: 0.016,inactive: -0.001,inactive: -0.023,inactive: 0.007,inactive: 0.082,inactive: 0.036,inactive: 0.055,inactive: 0.002
ZFAND6 (UniProt Q6FIF0),inactive: -0.059,inactive: -0.065,inactive: -0.006,inactive: 0.017,inactive: -0.047,inactive: -0.013,inactive: 0.099,inactive: 0.031,inactive: -0.083,inactive: -0.022,inactive: 0.011,inactive: 0.057,inactive: -0.08,inactive: 0.033,inactive: -0.035
ZBTB33 (UniProt Q86T24),inactive: -0.009,inactive: 0.084,inactive: -0.06,inactive: -0.052,inactive: 0.029,inactive: -0.08,inactive: -0.083,inactive: 0.133,inactive: 0,inactive: -0.035,inactive: 0.061,inactive: 0.103,inactive: -0.082,inactive: 0.009,inactive: -0.033
XPO1 (UniProt O14980),inactive: 0.011,inactive: -0.011,inactive: -0.038,inactive: -0.014,inactive: 0.021,inactive: -0.007,inactive: -0.009,inactive: 0.021,inactive: 0.011,inactive: 0.006,inactive: 0.009,active: -0.233,inactive: 0.003,inactive: -0.001,inactive: 0.036
ZFPL1 (UniProt O95159),inactive: -0.072,inactive: 0.09,inactive: -0.032,inactive: 0.122,inactive: -0.085,inactive: 0.042,inactive: 0.095,inactive: 0.009,inactive: 0.273,inactive: 0.011,inactive: -0.056,inactive: 0.303,inactive: 0.043,inactive: 0.028,inactive: 0.001
ZDHHC18 (UniProt Q9NUE0),inactive: 0.067,inactive: -0.329,inactive: 0.176,inactive: -0.047,inactive: -0.158,inactive: -0.008,inactive: 0.177,inactive: 0.008,inactive: 0.059,inactive: 0.067,inactive: -0.064,inactive: -0.162,inactive: 0.163,inactive: 0.009,inactive: 0.034
YIPF5 isoform 3 (UniProt Q969M3),inactive: -0.115,inactive: -0.129,inactive: 0.009,inactive: 0.042,inactive: -0.034,inactive: 0.072,inactive: -0.035,inactive: -0.06,inactive: 0.016,inactive: 0.035,inactive: -0.046,inactive: 0.05,inactive: -0.093,inactive: -0.142,inactive: -0.044
XRCC5 (UniProt P13010),inactive: 0.02,inactive: -0.021,inactive: -0.032,inactive: -0.016,inactive: 0.022,inactive: 0.004,inactive: -0.002,inactive: 0.024,inactive: -0.005,inactive: -0.006,inactive: 0.017,inactive: -0.093,inactive: 0.025,inactive: 0.018,inactive: 0.021
XRN1 (UniProt Q8IZH2),inactive: 0.05,inactive: -0.001,inactive: -0.112,inactive: 0.074,inactive: 0.043,inactive: -0.046,inactive: -0.061,inactive: 0.078,inactive: -0.069,inactive: -0.009,inactive: 0.021,inactive: -0.04,inactive: -0.028,inactive: 0.043,inactive: 0.043
ZFR (UniProt Q96KR1),inactive: -0.099,inactive: 0.024,inactive: 0.018,inactive: 0.023,inactive: 0.052,inactive: 0.011,inactive: 0.001,inactive: -0.006,inactive: 0.005,inactive: 0,inactive: 0.083,inactive: -0.038,inactive: 0.029,inactive: -0.025,inactive: 0.002
ZC3H11A (UniProt O75152),inactive: -0.021,inactive: -0.006,inactive: -0.021,inactive: 0.041,inactive: -0.022,inactive: -0.094,inactive: -0.007,inactive: 0,inactive: 0.004,inactive: 0.035,inactive: 0.123,active: -0.375,inactive: -0.026,inactive: 0.062,inactive: -0.009
YIF1B (UniProt Q5BJH7),inactive: 0.062,inactive: -0.019,inactive: -0.013,inactive: -0.033,inactive: 0.002,inactive: 0.003,inactive: -0.054,inactive: -0.027,inactive: -0.031,inactive: -0.126,inactive: -0.007,inactive: 0.123,inactive: -0.004,inactive: -0.009,inactive: -0.018
ZC3H8 (UniProt Q8N5P1),inactive: -0.022,inactive: 0.077,inactive: 0.026,inactive: -0.013,inactive: 0.034,inactive: -0.006,inactive: -0.007,inactive: -0.004,inactive: -0.023,inactive: 0.055,inactive: -0.018,inactive: -0.086,inactive: 0.052,inactive: -0.011,inactive: 0.015
YES1 (UniProt P07947),inactive: 0.043,inactive: 0.008,inactive: 0.154,inactive: -0.104,inactive: -0.087,inactive: -0.084,inactive: -0.157,active: 0.589,inactive: 0.032,inactive: 0.054,inactive: 0.09,inactive: -0.067,inactive: -0.187,inactive: -0.054,inactive: 0.038
XRCC5 (UniProt C9JZ81),inactive: 0,inactive: 0.005,–,inactive: -0.062,–,–,inactive: 0.189,–,inactive: 0.016,–,–,–,–,–,–
XRCC6 (UniProt P12956),inactive: -0.007,inactive: -0.014,inactive: -0.008,inactive: -0.007,inactive: 0.014,inactive: 0.03,inactive: -0.01,inactive: 0.013,inactive: 0.001,inactive: -0.011,inactive: 0.025,inactive: 0.049,inactive: 0.015,inactive: 0.012,inactive: 0.008

# Single records (already shown). Order of values: log2 fold change (nilotinib) | log2 fold change [1] | log2 fold change (dasatinib) | log2 fold change [2] | log2 fold change [3] | log2 fold change (quisinostat) | log2 fold change (tipifarnib) | log2 fold change [4] | log2 fold change [5] | log2 fold change [6] | log2 fold change [7] | log2 fold change (vorinostat) | log2 fold change (silmitasertib) | log2 fold change [8] | log2 fold change (entospletinib)
# YBX3 (UniProt P16989) reads inactive: -0.013 | inactive: -0.009 | inactive: 0.008 | inactive: -0.02 | inactive: -0.036 | inactive: -0.023 | inactive: -0.014 | inactive: -0.008 | inactive: -0.023 | inactive: -0.004 | inactive: 0.007 | inactive: 0.147 | inactive: -0.015 | inactive: 0.032 | inactive: 0.001
# ZBTB8OS (UniProt Q8IWT0) reads inactive: -0.035 | inactive: 0.011 | inactive: -0.013 | inactive: -0.018 | inactive: 0.029 | inactive: 0.123 | inactive: 0.003 | inactive: 0.016 | inactive: -0.001 | inactive: -0.023 | inactive: 0.007 | inactive: 0.082 | inactive: 0.036 | inactive: 0.055 | inactive: 0.002
